The target in this experiment is Desmoplakin (DSP) (human (endogenous in HEK293 and MCF-7)) (UniProt P15924). In words: co-IP; endogenous proteins in HEK293 and MCF-7 cells; which protein was precipitated is not given; knockdown of DSP as control.

The chains behind the UniProt entries cited, without tags or fusion partners.
UniProt P15924: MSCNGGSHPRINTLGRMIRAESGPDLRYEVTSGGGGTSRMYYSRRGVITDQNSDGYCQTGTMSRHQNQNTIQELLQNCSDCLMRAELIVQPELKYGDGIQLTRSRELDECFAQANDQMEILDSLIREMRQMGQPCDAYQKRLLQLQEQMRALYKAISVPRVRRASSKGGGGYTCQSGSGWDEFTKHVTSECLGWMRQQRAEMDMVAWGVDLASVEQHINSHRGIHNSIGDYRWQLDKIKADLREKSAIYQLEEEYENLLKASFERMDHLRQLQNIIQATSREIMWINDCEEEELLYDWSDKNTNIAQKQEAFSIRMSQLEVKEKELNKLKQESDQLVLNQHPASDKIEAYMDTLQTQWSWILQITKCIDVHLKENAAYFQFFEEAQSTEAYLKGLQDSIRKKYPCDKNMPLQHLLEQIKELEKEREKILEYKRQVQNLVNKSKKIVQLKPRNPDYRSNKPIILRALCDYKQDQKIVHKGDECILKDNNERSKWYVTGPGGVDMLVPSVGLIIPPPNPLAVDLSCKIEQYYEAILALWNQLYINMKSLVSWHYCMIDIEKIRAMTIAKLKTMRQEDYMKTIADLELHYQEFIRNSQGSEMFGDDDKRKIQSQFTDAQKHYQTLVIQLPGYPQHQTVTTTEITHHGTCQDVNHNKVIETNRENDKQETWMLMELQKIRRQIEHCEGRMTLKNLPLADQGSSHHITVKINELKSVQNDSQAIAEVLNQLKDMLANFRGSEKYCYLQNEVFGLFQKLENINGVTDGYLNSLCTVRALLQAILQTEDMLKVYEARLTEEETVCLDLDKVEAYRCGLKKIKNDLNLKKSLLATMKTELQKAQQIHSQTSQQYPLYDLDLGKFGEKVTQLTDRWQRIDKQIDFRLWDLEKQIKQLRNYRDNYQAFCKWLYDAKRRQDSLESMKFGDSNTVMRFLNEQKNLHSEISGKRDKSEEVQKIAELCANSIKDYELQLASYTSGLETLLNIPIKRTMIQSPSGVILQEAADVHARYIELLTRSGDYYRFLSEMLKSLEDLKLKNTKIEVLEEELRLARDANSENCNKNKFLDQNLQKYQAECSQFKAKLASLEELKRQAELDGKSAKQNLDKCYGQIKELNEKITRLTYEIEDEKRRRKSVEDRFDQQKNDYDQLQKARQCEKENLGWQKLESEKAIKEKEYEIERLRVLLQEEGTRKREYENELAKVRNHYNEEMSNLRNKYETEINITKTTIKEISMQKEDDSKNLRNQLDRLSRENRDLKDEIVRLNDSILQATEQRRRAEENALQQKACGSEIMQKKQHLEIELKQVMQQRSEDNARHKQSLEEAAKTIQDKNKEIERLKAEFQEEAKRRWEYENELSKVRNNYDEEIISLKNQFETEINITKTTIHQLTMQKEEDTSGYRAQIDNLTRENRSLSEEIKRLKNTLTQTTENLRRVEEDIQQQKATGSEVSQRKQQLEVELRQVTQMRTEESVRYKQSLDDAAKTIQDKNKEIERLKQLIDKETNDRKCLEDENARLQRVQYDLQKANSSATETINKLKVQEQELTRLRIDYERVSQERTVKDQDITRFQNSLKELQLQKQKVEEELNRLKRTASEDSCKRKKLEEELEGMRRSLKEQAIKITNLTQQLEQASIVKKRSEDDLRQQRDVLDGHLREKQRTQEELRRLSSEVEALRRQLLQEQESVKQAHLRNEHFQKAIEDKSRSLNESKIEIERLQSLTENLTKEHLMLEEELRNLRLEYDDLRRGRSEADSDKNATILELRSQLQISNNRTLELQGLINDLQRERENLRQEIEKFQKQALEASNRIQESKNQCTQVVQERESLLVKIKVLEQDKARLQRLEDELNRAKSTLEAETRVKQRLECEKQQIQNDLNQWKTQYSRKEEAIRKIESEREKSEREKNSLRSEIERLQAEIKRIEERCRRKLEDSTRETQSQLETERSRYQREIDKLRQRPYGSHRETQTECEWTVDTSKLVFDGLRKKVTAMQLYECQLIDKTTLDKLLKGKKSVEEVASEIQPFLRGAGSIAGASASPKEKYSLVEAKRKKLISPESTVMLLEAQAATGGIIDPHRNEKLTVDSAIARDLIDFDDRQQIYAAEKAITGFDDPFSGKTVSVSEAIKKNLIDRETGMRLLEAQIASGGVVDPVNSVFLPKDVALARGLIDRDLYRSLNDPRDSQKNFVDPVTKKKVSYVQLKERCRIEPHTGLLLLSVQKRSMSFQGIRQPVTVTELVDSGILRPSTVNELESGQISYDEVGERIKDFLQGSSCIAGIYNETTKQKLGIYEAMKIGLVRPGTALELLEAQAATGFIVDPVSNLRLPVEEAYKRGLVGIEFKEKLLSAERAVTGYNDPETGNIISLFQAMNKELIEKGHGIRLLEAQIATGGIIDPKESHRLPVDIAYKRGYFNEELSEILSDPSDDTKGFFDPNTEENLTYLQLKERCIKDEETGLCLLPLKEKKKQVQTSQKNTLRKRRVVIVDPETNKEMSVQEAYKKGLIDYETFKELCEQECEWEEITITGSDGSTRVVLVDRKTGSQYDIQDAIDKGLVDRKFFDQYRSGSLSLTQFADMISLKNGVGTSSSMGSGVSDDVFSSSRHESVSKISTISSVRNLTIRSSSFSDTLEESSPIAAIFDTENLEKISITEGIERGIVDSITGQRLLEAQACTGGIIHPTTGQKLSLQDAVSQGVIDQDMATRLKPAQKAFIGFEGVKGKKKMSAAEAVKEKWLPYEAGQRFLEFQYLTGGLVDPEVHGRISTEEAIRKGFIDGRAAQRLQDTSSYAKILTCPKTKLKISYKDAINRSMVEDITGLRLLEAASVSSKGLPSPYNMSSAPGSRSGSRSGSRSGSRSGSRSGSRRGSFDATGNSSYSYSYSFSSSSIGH
UniProt P54274: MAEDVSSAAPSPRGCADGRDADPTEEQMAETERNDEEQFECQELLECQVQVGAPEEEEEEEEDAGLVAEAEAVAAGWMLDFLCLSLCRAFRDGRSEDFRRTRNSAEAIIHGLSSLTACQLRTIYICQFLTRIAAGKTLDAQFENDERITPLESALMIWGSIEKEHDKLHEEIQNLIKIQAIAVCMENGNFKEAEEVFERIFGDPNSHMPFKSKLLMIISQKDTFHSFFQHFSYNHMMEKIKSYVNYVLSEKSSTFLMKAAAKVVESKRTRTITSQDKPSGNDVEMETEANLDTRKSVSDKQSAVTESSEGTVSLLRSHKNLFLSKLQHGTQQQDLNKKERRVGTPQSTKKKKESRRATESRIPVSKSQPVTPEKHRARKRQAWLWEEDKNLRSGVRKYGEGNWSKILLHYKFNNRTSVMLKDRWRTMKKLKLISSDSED

No constants are given. Whether binding was seen depends on the method and setting. Binding seen in cells or lysates may run through a third protein.

Turning to TRF1 (from UniProt P54274 1-439), the binding entry was “no binding”.

The values above are taken from article PMC6775319.
